{"source": "PubChem BioAssay AID1347423", "about": "(Functional Genomics Laboratory (NCATS/FGL), 2020)", "note": "Among all 52,000 sequences or so, about 210 (0.4%) were called active.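 How the source made its calls: active means gene whose silencing raises cell survival under the drug, median off-target-corrected z-score across its silencing RNAs 2 or more; inactive means the rest.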 The list shows a part of the results.", "data": [{"assay": "Resistance to Poly (ADP-Ribose) Polymerase inhibitor: Gene Identification via Genome-wide siRNA Screen", "conditions": "mouse BRCA2 R2336H ES cells, olaparib, CellTiter-Glo viability; stronger effect = higher value", "summary_of_the_method": "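Mouse BRCA2 R2336H ES cells were reverse-transfected with siRNA (20 nM final), treated at 48 h with 500 nM olaparib, and read by CellTiter-Glo after 72 h. Scores: MAD-based z per siRNA, median per gene, seed off-target correction.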", "values": [{"sequence": "GGAUAUGACUGAUAUUGAUTT against Il18", "z-score": "inactive: 0.566"}, {"sequence": "GGUACUGGAGGGACUUAGATT against Apob48r", "z-score": "inactive: 0.521"}, {"sequence": "CCGGUCACUUGAAAUCAUGTT against Spp2", "z-score": "inactive: -0.431"}, {"sequence": "GCAUUGAGUGCAUUAGAAUTT against Gnai1", "z-score": "inactive: 0.103"}, {"sequence": "GGGACUUCAAAAGCAAGAATT against Acvr2b", "z-score": "inactive: -0.856"}, {"sequence": "GCUUUAGGAAAUUUUGUGUTT against F630043A04Rik", "z-score": "inactive: -0.241"}, {"sequence": "GGGACUUGCCUUUCAUUCUTT against Acads", "z-score": "inactive: -0.526"}, {"sequence": "GCUCUGUCCAUUCCAUAAGTT against Cocoacrisp", "z-score": "inactive: 0.54"}, {"sequence": "CGAUUUAAAGUAGUAGUGGTT against 0710001B24Rik", "z-score": "inactive: 1.69"}, {"sequence": "CGCUGCUAAGAAUCAUCUATT against Ednrb", "z-score": "inactive: 0.813"}, {"sequence": "GACUACAUUUAUAGCCCAATT against Olfr1262", "z-score": "inactive: -0.91"}, {"sequence": "GGAAAAGUUAGCGUGUAAUTT against Prkcz", "z-score": "inactive: 1.27"}, {"sequence": "GGAAAUUGUAAGAAGCGUATT against 1110001A07Rik", "z-score": "inactive: -0.609"}, {"sequence": "CCAUUAAUAUCUUCUCUUCTT against Olfr1079", "z-score": "inactive: 0.566"}, {"sequence": "CGCAUCCAAGCUGAUAAAGTT against Stoml3", "z-score": "inactive: -0.594"}, {"sequence": "CCUGAUGCGUUACAACAACTT against D4Ertd196e", "z-score": "inactive: 1.85"}, {"sequence": "GGUCUUUUUAUCCCAUUGUTT against Olfr1298", "z-score": "inactive: -2.03"}, {"sequence": "GGGAAGAUCACAUUUUCGCTT against Ephx2", "z-score": "inactive: 0.933"}, {"sequence": "CCAGCGAGAAUGAAAUUCCTT against 5730593N15Rik", "z-score": "inactive: 0.942"}, {"sequence": "ACACUCCUAAAUUGAUCAUTT against Olfr1258", "z-score": "inactive: -0.297"}, {"sequence": "CCUCAUCAAUUGGUUAGAATT against Brip1", "z-score": "inactive: 0.389"}, {"sequence": "CGGCAAAUUCGUGAAAAGGTT against Olfr575", "z-score": "inactive: -0.0403"}, {"sequence": "GGAACCUCUCAGAUUUUCATT against BC050092", "z-score": "inactive: -0.625"}, {"sequence": "GGGCAUGCCCAAGAGAAUATT against Tcp1", "z-score": "inactive: -2.57"}, {"sequence": "GCUGACACAUUUUCACAUGTT against Itgax", "z-score": "inactive: 0.886"}, {"sequence": "GGAAAGAAACAAAGAAUGATT against 9930117H01Rik", "z-score": "inactive: -0.178"}, {"sequence": "GCUGAACUGUCUCAGCUCATT against 4930429O20Rik", "z-score": "inactive: 1.24"}, {"sequence": "CCAGCGAACAAAAUGAGGATT against Dusp23", "z-score": "inactive: -0.143"}, {"sequence": "GGGCUGAGGAGAAAAUGCATT against Gtl2", "z-score": "inactive: -0.152"}, {"sequence": "GGUAGGUCGUCGAGAAUACTT against 1700036D21Rik", "z-score": "inactive: -1.1"}, {"sequence": "AGCAGAAAAAGGAAGGCCATT against Xlr3b", "z-score": "inactive: 1.27"}, {"sequence": "GCAGUUCGAAUGGAGUGGUTT against Ube2v1", "z-score": "inactive: 0.0143"}, {"sequence": "GUCCUCAUCGGUCUGUUUATT against Mb", "z-score": "inactive: 0.255"}, {"sequence": "GGAUUUCCAGGUUAUUUUCTT against Csnb", "z-score": "inactive: 0.139"}, {"sequence": "CGAUAGUAAAAGAAAGCUATT against 8430416H19Rik", "z-score": "inactive: -1.51"}, {"sequence": "GGAACUUACAAGUAUCAGATT against Bhlhb5", "z-score": "inactive: -0.645"}, {"sequence": "GCAGCAGACACUCUGUACATT against Pcbp4", "z-score": "inactive: 0.884"}, {"sequence": "CCUCUCAUGAUGUUACCACTT against 5031414D18Rik", "z-score": "inactive: 1.12"}, {"sequence": "GGAAUUUUCUAUAGUCCGGTT against Flrt2", "z-score": "inactive: 0.268"}, {"sequence": "GCUGUUCUCGCCUAUGCAATT against Dll4", "z-score": "inactive: 1.11"}, {"sequence": "CCCUGCUAAAAUCGACCUGTT against BC052360", "z-score": "inactive: 0.603"}, {"sequence": "GCACGAGAGACAUUUCUCCTT against Myst2", "z-score": "inactive: -0.416"}, {"sequence": "GGACAAAGACCAGUCAUUCTT against 4921504I05Rik", "z-score": "inactive: 0.764"}, {"sequence": "GGGAGGAGAGUGAUUGAGATT against A730013G03Rik", "z-score": "inactive: 1.46"}, {"sequence": "CCUAUUAAGCUCAACAAGCTT against E030002O03Rik", "z-score": "inactive: -0.474"}, {"sequence": "GGACGUAGAAAUGAAACCATT against 2410004F06Rik", "z-score": "inactive: -0.18"}, {"sequence": "GCCUUCAGUACUGAUACCCTT against E2f2", "z-score": "inactive: 1.09"}, {"sequence": "GGUCCUGAUGUUGAAGGCATT against 5830482F20Rik", "z-score": "inactive: -2.06"}, {"sequence": "GGCCUGGAAGAUGAAGAUGTT against Arid3b", "z-score": "inactive: 2.65"}, {"sequence": "GGGAUUAUCUGAGAUGGAUTT against Btbd1", "z-score": "inactive: -0.773"}, {"sequence": "GGAAGAGAAAAGGAAGAAATT against Ankrd23", "z-score": "inactive: -0.772"}, {"sequence": "GGAAUUGUACAAAUGACCUTT against Adam29", "z-score": "active: -0.0465"}, {"sequence": "UUUAAGGACCUUGUAAGAATT against Olfr813", "z-score": "inactive: 1.4"}, {"sequence": "GGACCUUCUUCAAGAAAGUTT against Olfr430", "z-score": "inactive: -0.266"}, {"sequence": "UCCCUAACGGCCCUUUUUATT against Hist2h4", "z-score": "inactive: -0.609"}, {"sequence": "CCGUACCGAAUCCUUUAUCTT against 4933431N12Rik", "z-score": "inactive: -0.413"}, {"sequence": "GGAUAUAAAUGACAACUCGTT against Pcdhb5", "z-score": "inactive: 0.598"}, {"sequence": "GGGUAUAAGAGACAAGUAUTT against Cplx1", "z-score": "inactive: -1.97"}, {"sequence": "GCCUUACCGUCGAGGGUUUTT against Ppap2b", "z-score": "inactive: -1.56"}, {"sequence": "GGUGGACAGAUUUAAGCUUTT against 5830457O10Rik", "z-score": "inactive: -0.535"}, {"sequence": "GGAUACCAUUGUGGUCGCATT against Hck", "z-score": "inactive: -0.618"}, {"sequence": "GGAGGAUGGUUUCAAUUCUTT against Pdha2", "z-score": "inactive: 0.0881"}, {"sequence": "GCUCUAUGAGAGUAUAUUATT against 1500001M20Rik", "z-score": "inactive: -0.647"}, {"sequence": "GGUGUACAACGUAUUCAUATT against Suv39h1", "z-score": "inactive: 0.525"}, {"sequence": "GCCUUAACUAUGUUGUCUATT against Mgst1", "z-score": "inactive: -0.976"}, {"sequence": "GGCAUCCACCCUAAGGUCATT against Keap1", "z-score": "inactive: 0.252"}, {"sequence": "GCAGAGUUACAAGCUUUUATT against Diap3", "z-score": "inactive: -0.806"}, {"sequence": "GGAAGAGCAGGAGGAAACATT against Mea1", "z-score": "inactive: -1.24"}, {"sequence": "CGAGCUAAAUUUCAAGAACTT against 1700008I05Rik", "z-score": "inactive: 0.781"}, {"sequence": "CCUUGGAACCUUUAGUUAATT against 2500002L14Rik", "z-score": "inactive: -0.128"}, {"sequence": "GGUCAUGACUGGUGUGUCATT against Allc", "z-score": "inactive: -2.72"}, {"sequence": "GGCCAACUUCGAAGAAAAGTT against Mrpl52", "z-score": "inactive: -0.09"}, {"sequence": "GGAAAGAAGGACAAAUAAUTT against Spg20", "z-score": "inactive: -1.22"}, {"sequence": "CCAAAACCUAACUUGAAGATT against Rad51ap1", "z-score": "inactive: 1.04"}, {"sequence": "GCUCAUAAAUAAAAAGACGTT against Mcm6", "z-score": "inactive: 0.267"}, {"sequence": "GGUCAAGAAGAGUAUAGUGTT against Hras1", "z-score": "inactive: -0.346"}, {"sequence": "GGACUUCUUGUUUCUUACATT against Olfr1140", "z-score": "inactive: -1.12"}, {"sequence": "CCGGUUACCAAUUGAUAAATT against Cspg6", "z-score": "inactive: -0.911"}, {"sequence": "CGUGUCAGAACUCGAUCUUTT against E130107N23Rik", "z-score": "inactive: 0.779"}, {"sequence": "GCCAGUCAUGUCCAAAGUATT against Hdac1", "z-score": "inactive: -2.13"}, {"sequence": "GGGACUGUUUCAGCUAUACTT against H6pd", "z-score": "inactive: -0.781"}, {"sequence": "GGACUGGUGGACAUAUGAATT against 4632413K17Rik", "z-score": "inactive: -0.411"}, {"sequence": "GCUCUCACACCCUUAUGUATT against Sdfr1", "z-score": "inactive: -1.45"}, {"sequence": "GGAAAGUGAUUGUUGGAGCTT against Fpr-rs3", "z-score": "inactive: -1.69"}, {"sequence": "GGUCAAUUCGGAGGUCCAGTT against Zfp385", "z-score": "inactive: -2"}, {"sequence": "GCUUAUAAGAGUCUAUCUUTT against Stam", "z-score": "inactive: 0.882"}, {"sequence": "GGAGAUAUCCAUCAAUAGUTT against Nbr1", "z-score": "inactive: -0.0777"}, {"sequence": "GGGCUUCAUUAAGGACUGCTT against Freq", "z-score": "inactive: -0.173"}, {"sequence": "CCUAUGUAACACAAACAUUTT against Orc5l", "z-score": "inactive: 0.535"}, {"sequence": "GGGUGUCUCCAUUUUUCCUTT against BC068281", "z-score": "inactive: -0.955"}, {"sequence": "GCAUGUGGCUAACUUCAAATT against 4933411G06Rik", "z-score": "inactive: 1.11"}, {"sequence": "CGCUCUCUCUACAAAGGAUTT against A230052G05Rik", "z-score": "inactive: -0.259"}, {"sequence": "GGACACAAUAUGUGAAGUATT against BC016423", "z-score": "inactive: 0.193"}, {"sequence": "CCUUCUAUUCACUUUACCATT against V1rk1", "z-score": "inactive: 1.77"}, {"sequence": "GGCCUUCAGAAAGUCCUUGTT against Car2", "z-score": "inactive: -0.283"}, {"sequence": "UGUAUAGCUAUGACCCUGCTT against AI413582", "z-score": "inactive: -1.33"}, {"sequence": "GGAUGUACAAGAAAAGUAUTT against Ccr3", "z-score": "inactive: -0.616"}, {"sequence": "GGUUCCAAGAGACUGAAAGTT against LOC544763", "z-score": "inactive: 0.842"}, {"sequence": "CCGUUCUGGCACAGAACAGTT against A830005F24Rik", "z-score": "inactive: -0.54"}, {"sequence": "GGUUAUCUAUGGUCGGAAGTT against 2610003J06Rik", "z-score": "inactive: 1.18"}, {"sequence": "GGAGUUUCUACGUGUAUGCTT against Tpra40", "z-score": "inactive: 0.00753"}, {"sequence": "GCCAACGAGAUUUGUAACATT against Dr1", "z-score": "inactive: 0.18"}, {"sequence": "GGUGAAAAGUCCUGCCAAGTT against Nefh", "z-score": "inactive: -0.961"}]}]}
